# Source: patent US7018615B2, “Method of identifying molecules that home to a selected organ in vivo” (The Burnham Institute, priority 1995, dated 2006)
# Values joined by “and” are separate entries in the source; they are usually repeats but may differ in a detail not shown here. Identical values can stand only once.
# Tested on: brain
# Experiment: In vivo panning of phage peptide display libraries, brain as selected organ, kidney as control organ
# Parameters: species or system mice
# Settings: 73 cloned phage recovered from brain, second and third rounds of in vivo panning
# Procedure: (§1) A mixture of phage libraries containing 1×10^14 TU was diluted in 200 μl DMEM and injected into the tail vein of anesthetized BALB\c mice (2 month old females; Jackson Laboratories; Bar Harbor Me.); Avertin (0.015 ml/g) was used as anesthetic. After 1-4 minutes, mice were snap frozen in liquid nitrogen. To recover the phage, carcasses were partially thawed at room temperature for 1 hr, organs were collected and weighed, then were ground in 1 ml DMEM-PI (DMEM containing protease inhibitors (PI); phenylmethylsulfonyl fluoride (PMSF; 1 mM), aprotinin (20 μg/ml), leupeptin (1 μg/ml)).
# (§2) Organ samples were washed 3 times with ice cold DMEM-PI containing 1% bovine serum albumin (BSA), then directly incubated with 1 ml K91-kan bacteria for 1 hr. Ten ml NZY medium containing 0.2 μg/ml tetracycline (NZY/tet) was added to the bacterial culture, the mixture was incubated in a 37° C. shaker for 1 hr, then 200 μl aliquots were plated in agar plates containing 40 μg/ml tetracycline (tet/agar).
# (§3) Individual colonies containing phage recovered from brain or kidney-were grown for 16 hr in 5 ml NZY/tet. The bacterial cultures obtained from the individual colonies were pooled and the amplified eluates were injected into mice as described above for a second round of in vivo panning. A third round of panning also was performed. Phage DNA was purified from individual bacterial colonies obtained from the second and the third round of in vivo panning and the DNA sequences encoding the peptides expressed by selected phage were determined (see Koivunen et al., supra, 1994b).
# Three rounds of in vivo panning in mice were performed. Kidney was used as a control organ. Mice were injected with two different mixtures of phage libraries. The first mixture contained libraries encoding CX9 (SEQ ID NO: 39), CX5C (SEQ ID NO: 36), CX6C (SEQ ID NO: 37) and CX7C (SEQ ID NO: 38) peptides (CX5-7/CX9 mixture; SEQ ID NOS: 36-39). The second mixture contained libraries encoding X2CX14CX2 (SEQ ID NO: 40) and X2CX18 (SEQ ID NO: 41) peptides (X2CX18/X2CX14CX2 mixture; SEQ ID NOS: 40 and 41).
# The phage library mixtures were administered to mice via tail vein injection. Phage input was 1×10^16 TU of the CX5-7/CX9 (SEQ ID NOS: 36-39) mixture or 1×10^14 TU of the X2CX18/X2CX14CX2 (SEQ ID NOS: 40 and 41) mixture. Phage were recovered from the brains of the injected mice, the recovered phage were amplified in vitro, then a second and a third round of in vivo panning was performed. During the second and third rounds of panning, phage were recovered from brain and from kidney and the number of TU from each organ was compared. […] Following administration of the X2CX18/X2CX14CX2 (SEQ ID NOS: 40 and 41) mixture, an 11× and 8× enrichment of phage homing to the brain as compared to kidney occurred during the second and third rounds of panning, respectively. Thus, substantial enrichment of phage binding to the brain was observed following the second and third rounds of in vivo panning.
# The amino acid sequences were determined for the inserts present in 73 cloned phage that were recovered from brain during the second and third rounds of in vivo panning. Peptides containing an SRL motif predominated (36% of the clones sequenced; see SEQ ID NOS: 1, 3 and 5), followed by peptides containing the VLR motif (20.5% of the clones; see SEQ ID NOS: 4 and 16) and the peptide CENWWGDVC (SEQ ID NO: 2; 19% of the clones; see Table 1). […] Nine other sequences appeared only one time each and were not characterized further.
row,Substance,% PHAGE (of the clones sequenced)
1,CANAQSHC (displayed on phage) [peptide from phage recovered from brain],1.4%
2,CENWWGDVC (displayed on phage),19% and 19.2%
3,CETLPAC (displayed on phage) [peptide from phage recovered from brain],1.4%
4,CGNPSYRC (displayed on phage) [peptide from phage recovered from brain],1.4%
5,CGRSLDAC (displayed on phage) [peptide from phage recovered from brain],1.4%
6,CGVRLGC (displayed on phage) [peptide from phage recovered from brain],4.1%
7,CKDWGRIC (displayed on phage) [peptide from phage recovered from brain],2.8%
8,CLDWGRIC (displayed on phage) [peptide from phage recovered from brain],2.8%
9,CLSSRLDAC (displayed on phage or cyclic) [also synthesized as cyclic peptide],8.2%
10,CNSRLHLRC (displayed on phage),21.9%
11,CNSRLQLRC (displayed on phage) [peptide from phage recovered from brain],5.5%
12,CRHWFDVVC (displayed on phage) [peptide from phage recovered from brain],1.4%
13,CRTGTLFC (displayed on phage) [peptide from phage recovered from brain],1.4%
14,CTRITESC (displayed on phage) [peptide from phage recovered from brain],2.8%
15,CVLRGGRC (displayed on phage) [peptide from phage recovered from brain],6.8%
16,LNCDYQGTNPATSVSVPCTV (displayed on phage) [peptide from phage recovered from brain],1.4%
17,WRCVLREGPAGGCAWFNRHRL (displayed on phage),13.7%
18,YPCGGEAVAGVSSVRTMCSE (displayed on phage) [peptide from phage recovered from brain],1.4%

# Tested on: kidney
# Experiment: In vivo panning of phage peptide display libraries, kidney as selected organ, brain as control organ
# Parameters: species or system mice
# Settings: 48 cloned phage that homed to kidney
# Procedure: as §1, §2, §3
# The same methodology used to isolate phage expressing brain homing peptides was used to isolate phage expressing peptides that home to kidney. In these experiments, brain was used as the control organ. A mixture of the CX5C (SEQ ID NO: 36) and the CX6C (SEQ ID NO: 37) libraries was administered as described above. Homing of phage to the kidney was obtained and an approximately 3× to 7× enrichment of phage homing to kidney was observed following a second round of in vivo panning.
# The amino acid sequences were determined for the inserts in 48 cloned phage that homed to kidney. The peptides expressed by these phage were represented by two predominant sequences, CLPVASC (SEQ ID NO: 21; 46% of the clones sequenced) and CGAREMC (SEQ ID NO: 22; 17% of the clones; see Table 2). In addition, the peptide CKGRSSAC (SEQ ID NO: 23) appeared three times and three other peptides were present twice each.
row,Substance,% PHAGE (of the clones sequenced)
1,CFVGHDLC (displayed on phage) [peptide from phage recovered from kidney],2.1%
2,CGAREMC (displayed on phage),17% and 16.7%
3,CKGRSSAC (displayed on phage),6.2%
4,CKLLSGVC (displayed on phage) [peptide from phage recovered from kidney],2.1%
5,CKLMGEC (displayed on phage) [peptide from phage recovered from kidney],2.1%
6,CLGRSSVC (displayed on phage) [peptide from phage recovered from kidney],4.2%
7,CLMGVHC (displayed on phage) [peptide from phage recovered from kidney],2.1%
8,CLPVASC (displayed on phage),46% and 45.8%
9,CMGRWRLC (displayed on phage) [peptide from phage recovered from kidney],2.1%
10,CRCLNVC (displayed on phage) [peptide from phage recovered from kidney],2.1%
11,CRRFQDC (displayed on phage) [peptide from phage recovered from kidney],2.1%
12,CTSPGGSC (displayed on phage) [peptide from phage recovered from kidney],4.2%
13,CVAWLNC (displayed on phage) [peptide from phage recovered from kidney],2.1%
14,CVGECGGC (displayed on phage) [peptide from phage recovered from kidney],2.1%
15,CWARAQGC (displayed on phage) [peptide from phage recovered from kidney],4.2%

# Same assay, conditions: kidney homing peptides that were sequenced
row,Substance,fraction of the sequenced kidney homing peptides having the sequence
1,CLPVASC (displayed on phage),half
